The values that follow come from patent US12635693B2, “Activated ferrate compositions and methods” (THE TEXAS A&M UNIVERSITY SYSTEM, priority 2020, dated 2026).

“Also recorded” adds a separate entry of the source.

A short description of this series: Removal (oxidation) of Carbamazepine (CBZ) by ferrate with or without amino acids, HPLC.

With `O=C(O)[C@@H]1CCCN1` [proline], where the note is “[amino acid]=100.0 μM, [CBZ]=5.0 μM, [ferrate]=100.0 μM, pH 9.0, 1 min”, the “influence of amino acid on removal of CBZ by ferrate, compared to ferrate only (control)” value was “demonstrated activation of ferrate; also recorded: enhanced removal”. Also, the “oxidation of CBZ (change versus molar ratio 1.0)” value (molar ratio of proline to ferrate 2.0, [ferrate]=100.0 μM, pH 9.0) is listed as “decreased”.
